Test results reported in the supplement of paper PMC10849652.
The list shows a part of the results.

By UniProt entry, the sequences of proteins in these tests, tags left out. Where a name states a change or a piece, a line headed by the entry shows the natural chain unless it says otherwise.
UniProt O94988: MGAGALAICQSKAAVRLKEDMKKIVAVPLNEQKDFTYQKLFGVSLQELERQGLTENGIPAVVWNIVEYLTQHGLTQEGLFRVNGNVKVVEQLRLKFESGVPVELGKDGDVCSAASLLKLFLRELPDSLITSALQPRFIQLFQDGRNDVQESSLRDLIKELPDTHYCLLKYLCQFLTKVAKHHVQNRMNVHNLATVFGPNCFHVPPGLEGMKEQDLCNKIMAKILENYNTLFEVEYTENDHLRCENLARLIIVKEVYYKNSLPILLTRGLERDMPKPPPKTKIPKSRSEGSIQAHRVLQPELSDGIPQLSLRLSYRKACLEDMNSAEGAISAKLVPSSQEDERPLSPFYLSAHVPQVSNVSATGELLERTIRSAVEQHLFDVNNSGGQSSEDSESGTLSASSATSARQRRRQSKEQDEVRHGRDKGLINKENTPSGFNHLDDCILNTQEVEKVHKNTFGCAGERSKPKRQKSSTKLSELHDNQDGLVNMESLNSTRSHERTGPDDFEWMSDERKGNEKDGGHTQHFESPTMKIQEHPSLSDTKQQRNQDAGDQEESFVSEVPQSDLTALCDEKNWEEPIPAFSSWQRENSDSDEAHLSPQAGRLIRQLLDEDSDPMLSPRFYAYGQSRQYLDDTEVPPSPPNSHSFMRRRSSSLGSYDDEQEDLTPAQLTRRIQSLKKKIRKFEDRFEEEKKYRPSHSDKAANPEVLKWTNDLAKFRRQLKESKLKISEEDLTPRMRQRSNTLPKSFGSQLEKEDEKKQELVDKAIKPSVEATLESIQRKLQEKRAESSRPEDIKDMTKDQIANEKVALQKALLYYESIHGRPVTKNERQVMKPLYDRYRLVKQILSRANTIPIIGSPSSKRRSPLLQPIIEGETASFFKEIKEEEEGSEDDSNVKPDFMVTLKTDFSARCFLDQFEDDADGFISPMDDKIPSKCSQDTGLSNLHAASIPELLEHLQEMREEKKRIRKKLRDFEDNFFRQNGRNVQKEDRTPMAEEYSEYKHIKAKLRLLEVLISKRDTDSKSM
UniProt Q8IXR5: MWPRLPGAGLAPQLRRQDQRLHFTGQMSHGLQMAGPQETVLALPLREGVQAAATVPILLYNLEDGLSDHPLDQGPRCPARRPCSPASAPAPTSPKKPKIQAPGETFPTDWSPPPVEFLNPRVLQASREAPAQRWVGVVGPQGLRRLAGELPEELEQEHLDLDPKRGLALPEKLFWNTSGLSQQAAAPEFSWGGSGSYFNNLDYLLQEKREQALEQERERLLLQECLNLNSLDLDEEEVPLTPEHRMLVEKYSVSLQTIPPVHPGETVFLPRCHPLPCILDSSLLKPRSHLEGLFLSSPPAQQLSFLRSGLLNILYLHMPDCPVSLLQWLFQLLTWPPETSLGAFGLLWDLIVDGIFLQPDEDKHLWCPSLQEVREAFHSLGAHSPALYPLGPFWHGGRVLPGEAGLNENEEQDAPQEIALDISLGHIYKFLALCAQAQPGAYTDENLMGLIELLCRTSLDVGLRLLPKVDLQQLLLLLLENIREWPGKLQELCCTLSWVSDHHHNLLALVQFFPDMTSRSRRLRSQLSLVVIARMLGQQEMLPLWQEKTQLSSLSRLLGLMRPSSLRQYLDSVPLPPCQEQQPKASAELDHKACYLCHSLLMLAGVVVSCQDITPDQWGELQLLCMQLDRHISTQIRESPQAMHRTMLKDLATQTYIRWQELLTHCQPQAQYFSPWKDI
UniProt B1AK53: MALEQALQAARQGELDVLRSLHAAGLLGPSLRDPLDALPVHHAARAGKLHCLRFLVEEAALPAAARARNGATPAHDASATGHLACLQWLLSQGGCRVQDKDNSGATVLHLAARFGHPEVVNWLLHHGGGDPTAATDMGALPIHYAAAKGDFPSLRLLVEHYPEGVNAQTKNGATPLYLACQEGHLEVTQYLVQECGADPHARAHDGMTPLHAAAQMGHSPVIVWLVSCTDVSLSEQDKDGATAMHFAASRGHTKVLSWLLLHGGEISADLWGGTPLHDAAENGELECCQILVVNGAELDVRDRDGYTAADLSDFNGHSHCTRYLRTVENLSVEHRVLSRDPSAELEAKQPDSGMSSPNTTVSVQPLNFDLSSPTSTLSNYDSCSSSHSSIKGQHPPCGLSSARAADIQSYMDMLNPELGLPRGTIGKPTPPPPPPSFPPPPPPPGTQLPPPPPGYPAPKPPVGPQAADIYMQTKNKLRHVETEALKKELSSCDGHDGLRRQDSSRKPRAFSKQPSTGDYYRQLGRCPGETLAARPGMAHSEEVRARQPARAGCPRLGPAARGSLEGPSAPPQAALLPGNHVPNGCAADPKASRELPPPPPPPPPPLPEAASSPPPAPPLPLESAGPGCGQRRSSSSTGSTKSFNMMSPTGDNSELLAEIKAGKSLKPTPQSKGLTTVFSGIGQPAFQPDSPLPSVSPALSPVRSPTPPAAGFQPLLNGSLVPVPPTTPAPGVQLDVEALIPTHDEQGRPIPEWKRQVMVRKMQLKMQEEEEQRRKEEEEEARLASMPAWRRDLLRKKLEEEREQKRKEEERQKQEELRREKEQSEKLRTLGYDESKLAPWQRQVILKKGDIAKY
UniProt Q9NVM1: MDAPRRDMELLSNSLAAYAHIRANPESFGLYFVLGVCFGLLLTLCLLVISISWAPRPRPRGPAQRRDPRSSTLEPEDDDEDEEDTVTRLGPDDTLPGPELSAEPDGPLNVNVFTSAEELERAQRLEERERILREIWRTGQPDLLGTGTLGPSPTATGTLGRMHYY
EXOC3L2, A0A1C7CYX0, UniProt A0A1C7CYX0, whole entry, looked up: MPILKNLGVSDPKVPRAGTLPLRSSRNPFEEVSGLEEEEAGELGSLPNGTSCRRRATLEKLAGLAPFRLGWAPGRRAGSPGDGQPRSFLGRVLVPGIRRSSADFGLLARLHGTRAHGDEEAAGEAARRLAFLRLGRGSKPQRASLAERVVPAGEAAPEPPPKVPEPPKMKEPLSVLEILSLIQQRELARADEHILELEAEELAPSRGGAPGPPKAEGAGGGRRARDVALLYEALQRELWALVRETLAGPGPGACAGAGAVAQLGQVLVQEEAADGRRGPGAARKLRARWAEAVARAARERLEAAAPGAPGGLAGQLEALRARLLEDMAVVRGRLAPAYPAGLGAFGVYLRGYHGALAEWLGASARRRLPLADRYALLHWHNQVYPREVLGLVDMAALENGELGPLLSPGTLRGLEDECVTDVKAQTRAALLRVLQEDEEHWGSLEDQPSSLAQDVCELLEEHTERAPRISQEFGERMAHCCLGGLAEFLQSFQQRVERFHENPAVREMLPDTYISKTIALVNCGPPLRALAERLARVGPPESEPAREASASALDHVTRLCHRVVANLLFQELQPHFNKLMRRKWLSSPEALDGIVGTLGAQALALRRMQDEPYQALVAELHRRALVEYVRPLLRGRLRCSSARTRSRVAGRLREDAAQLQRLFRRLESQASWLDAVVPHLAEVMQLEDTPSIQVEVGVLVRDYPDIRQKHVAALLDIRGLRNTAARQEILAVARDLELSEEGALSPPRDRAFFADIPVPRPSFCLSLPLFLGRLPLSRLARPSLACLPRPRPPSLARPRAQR
UniProt Q9H790: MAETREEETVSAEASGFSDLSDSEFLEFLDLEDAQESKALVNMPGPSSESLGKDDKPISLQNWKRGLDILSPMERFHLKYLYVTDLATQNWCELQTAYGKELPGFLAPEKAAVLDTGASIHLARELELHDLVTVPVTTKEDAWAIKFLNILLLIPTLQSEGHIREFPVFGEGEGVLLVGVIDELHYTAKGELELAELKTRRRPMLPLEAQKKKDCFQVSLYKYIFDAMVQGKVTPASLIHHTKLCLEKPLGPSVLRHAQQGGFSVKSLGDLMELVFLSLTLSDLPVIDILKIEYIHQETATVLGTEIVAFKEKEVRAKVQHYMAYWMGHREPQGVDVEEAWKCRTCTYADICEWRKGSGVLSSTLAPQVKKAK
UniProt O95718: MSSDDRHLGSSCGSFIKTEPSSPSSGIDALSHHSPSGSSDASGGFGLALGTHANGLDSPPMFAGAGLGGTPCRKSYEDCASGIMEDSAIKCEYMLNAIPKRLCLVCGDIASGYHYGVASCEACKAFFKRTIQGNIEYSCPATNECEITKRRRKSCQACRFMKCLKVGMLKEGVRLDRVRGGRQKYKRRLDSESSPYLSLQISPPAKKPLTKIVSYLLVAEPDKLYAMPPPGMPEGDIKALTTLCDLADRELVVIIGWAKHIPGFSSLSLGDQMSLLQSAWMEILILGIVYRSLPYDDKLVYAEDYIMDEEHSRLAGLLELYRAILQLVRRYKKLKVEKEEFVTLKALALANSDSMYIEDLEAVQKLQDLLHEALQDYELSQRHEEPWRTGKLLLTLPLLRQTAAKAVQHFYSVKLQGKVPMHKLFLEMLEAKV
UniProt Q9BVV8: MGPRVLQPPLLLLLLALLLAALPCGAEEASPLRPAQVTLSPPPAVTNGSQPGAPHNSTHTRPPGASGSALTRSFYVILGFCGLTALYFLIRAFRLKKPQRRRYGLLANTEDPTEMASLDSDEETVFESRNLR
UniProt P50549: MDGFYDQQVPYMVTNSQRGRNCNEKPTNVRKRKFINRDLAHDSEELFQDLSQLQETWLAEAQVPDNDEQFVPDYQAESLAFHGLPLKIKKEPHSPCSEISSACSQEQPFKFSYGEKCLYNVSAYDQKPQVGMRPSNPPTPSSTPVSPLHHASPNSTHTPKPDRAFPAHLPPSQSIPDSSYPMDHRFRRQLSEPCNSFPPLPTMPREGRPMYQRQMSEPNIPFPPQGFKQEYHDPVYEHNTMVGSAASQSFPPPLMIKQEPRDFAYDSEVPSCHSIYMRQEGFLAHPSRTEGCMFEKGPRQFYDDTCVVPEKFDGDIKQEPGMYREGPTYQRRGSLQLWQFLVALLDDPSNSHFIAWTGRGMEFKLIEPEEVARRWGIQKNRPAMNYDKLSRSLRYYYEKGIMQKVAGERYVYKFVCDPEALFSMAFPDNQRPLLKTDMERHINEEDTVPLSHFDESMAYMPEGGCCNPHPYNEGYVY
UniProt P43268: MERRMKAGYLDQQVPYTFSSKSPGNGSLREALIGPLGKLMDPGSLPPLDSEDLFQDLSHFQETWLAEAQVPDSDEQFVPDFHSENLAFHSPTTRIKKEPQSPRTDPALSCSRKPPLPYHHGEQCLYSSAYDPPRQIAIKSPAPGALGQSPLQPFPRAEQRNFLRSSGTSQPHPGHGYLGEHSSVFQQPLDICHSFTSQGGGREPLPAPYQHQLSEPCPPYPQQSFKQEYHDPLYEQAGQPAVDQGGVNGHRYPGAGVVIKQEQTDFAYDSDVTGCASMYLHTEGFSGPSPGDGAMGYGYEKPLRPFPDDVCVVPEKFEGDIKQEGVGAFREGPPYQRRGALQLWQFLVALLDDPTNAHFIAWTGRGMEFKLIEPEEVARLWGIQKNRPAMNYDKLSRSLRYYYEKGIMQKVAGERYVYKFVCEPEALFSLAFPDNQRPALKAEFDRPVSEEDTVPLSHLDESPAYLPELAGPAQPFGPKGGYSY
UniProt Q9H8W3: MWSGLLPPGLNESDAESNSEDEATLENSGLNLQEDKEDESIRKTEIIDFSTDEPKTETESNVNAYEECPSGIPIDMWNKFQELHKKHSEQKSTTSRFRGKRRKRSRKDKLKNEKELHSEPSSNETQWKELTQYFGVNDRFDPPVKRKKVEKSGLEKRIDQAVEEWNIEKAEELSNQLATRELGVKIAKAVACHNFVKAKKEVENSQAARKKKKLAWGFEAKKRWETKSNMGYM
UniProt Q6PEV8: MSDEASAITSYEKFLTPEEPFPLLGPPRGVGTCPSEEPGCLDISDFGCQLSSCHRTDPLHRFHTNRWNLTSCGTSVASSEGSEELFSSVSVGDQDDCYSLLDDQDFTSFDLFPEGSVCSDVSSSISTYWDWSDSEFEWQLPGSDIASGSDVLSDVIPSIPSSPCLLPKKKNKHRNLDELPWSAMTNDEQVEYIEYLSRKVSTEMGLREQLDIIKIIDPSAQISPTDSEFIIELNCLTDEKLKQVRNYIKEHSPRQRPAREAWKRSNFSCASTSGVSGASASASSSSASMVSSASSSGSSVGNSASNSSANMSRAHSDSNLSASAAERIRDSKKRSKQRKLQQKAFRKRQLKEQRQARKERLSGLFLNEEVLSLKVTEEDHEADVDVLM
UniProt Q9NYF3: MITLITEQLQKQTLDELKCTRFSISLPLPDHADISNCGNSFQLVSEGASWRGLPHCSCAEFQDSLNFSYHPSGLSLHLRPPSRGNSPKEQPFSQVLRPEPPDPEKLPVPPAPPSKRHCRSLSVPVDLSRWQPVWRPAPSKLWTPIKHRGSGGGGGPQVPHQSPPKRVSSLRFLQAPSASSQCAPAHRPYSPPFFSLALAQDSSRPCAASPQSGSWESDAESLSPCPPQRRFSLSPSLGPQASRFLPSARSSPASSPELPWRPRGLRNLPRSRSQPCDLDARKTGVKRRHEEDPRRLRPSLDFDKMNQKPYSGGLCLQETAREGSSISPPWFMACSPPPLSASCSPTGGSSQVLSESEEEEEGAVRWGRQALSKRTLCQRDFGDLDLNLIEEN

Tests used:
Assay in all cases: log2 fold change, soluble protein after heating vs DMSO (PISA); higher = thermal stabilisation; K562 lysate, 10 uM; active = over 0.2 and 3.5 SD of the protein, either way, in both replicates (recomputed)
[1] = compound: CCn1c(C(=O)N(C2CC2)C2CC2)cc2c3c(ncn3C)c(Nc3cc(C)n(C)n3)nc21
Outline: (§1)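 To prepare the extract, K562 pellets were dounce-homogenised in PBS pH 7.4 with 1 mM MgCl2, giving crude material at 1 mg/mL protein. This was treated with 10 μM compound for 30 min, then heated in aliquots for 3 min over 48°C-58°C before pooling and addition of NP-40 to 0.5% at 4°C. Centrifugation at 21,000xg for 90 min left soluble protein in the supernatant, which TMTpro 16plex LC-MS/MS quantified with equalised channel sums. Results are log-two fold changes in thermal stability compared with solvent controls, from duplicates.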

saracatinib = compound: CN1CCN(CCOc2cc(OC3CCOCC3)c3c(Nc4c(Cl)ccc5c4OCO5)ncnc3c2)CC1 [saracatinib]
Outline: as §1

sotrastaurin = compound: CN1CCN(c2nc(C3=C(c4c[nH]c5ccccc45)C(=O)NC3=O)c3ccccc3n2)CC1 [sotrastaurin]
Outline: as §1

Tubastatin A = compound: CN1CCc2c(c3ccccc3n2Cc2ccc(C(=O)NO)cc2)C1 [Tubastatin A]
Outline: as §1

[2] = compound: CNc1nc(-c2ccc3c(N)n[nH]c3c2)cc(N2C[C@@H](C(=O)NC3CCCCC3)CC[C@H]2C)n1
Outline: as §1

[3] = compound: CC[C@@H]1C(=O)N(C)c2cnc(Nc3ccc(C(=O)NC4CCN(C)CC4)cc3OC)nc2N1C1CCCC1
Outline: as §1

encorafenib = compound: COC(=O)N[C@@H](C)CNc1nccc(-c2cn(C(C)C)nc2-c2cc(Cl)cc(NS(C)(=O)=O)c2F)n1 [encorafenib]
Outline: as §1

[4] = compound: COC(=O)[C@H](CCSC)NC(=O)C1=C(C=C(C=C1)NC[C@H](CS)N)C2=CC=CC=C2
Outline: as §1

[5] = compound: CCCS(=O)(=O)Nc1ccc(F)c(C(=O)c2c[nH]c3ncc(Cl)cc23)c1F
Outline: as §1

barasertib = compound: CCN(CCCOc1ccc2c(Nc3cc(CC(=O)Nc4cccc(F)c4)[nH]n3)ncnc2c1)CCOP(=O)(O)O [barasertib]
Outline: as §1

volasertib = compound: CC[C@@H]1C(=O)N(C)c2cnc(Nc3ccc(C(=O)N[C@H]4CC[C@H](N5CCN(CC6CC6)CC5)CC4)cc3OC)nc2N1C(C)C [volasertib]
Outline: as §1

[6] = compound: COc1cc2nc(-c3cc(F)ccc3O)nc(N[C@@H]3CNC[C@H]3C(C)(C)O)c2cc1OC
Outline: as §1

[7] = compound: CNC(=O)C1=CC=CC=C1NC2=NC(=NC=C2Cl)NC3=C(C=C(C=C3)N4CCOCC4)OC
Outline: as §1

[8] = compound: CCn1cc(-c2ccnc3[nH]c(-c4cccc(CN(C)C)c4)cc23)c(-c2ccc(NC(=O)N(C)C)cc2)n1
Outline: as §1

[9] = compound: CN1CCC(CNc2ccc3ncc(-c4cccc(OC(F)(F)F)c4)n3n2)CC1
Outline: as §1

alvocidib = compound: CN1CC[C@H](c2c(O)cc(O)c3c(=O)cc(-c4ccccc4Cl)oc23)[C@H](O)C1 [alvocidib]
Outline: as §1

alisertib = compound: COc1cc(Nc2ncc3c(n2)-c2ccc(Cl)cc2C(c2c(F)cccc2OC)=NC3)ccc1C(=O)O [alisertib]
Outline: as §1

gefitinib = compound: COc1cc2ncnc(Nc3ccc(F)c(Cl)c3)c2cc1OCCCN1CCOCC1 [gefitinib]
Outline: as §1

vemurafenib = compound: CCCS(=O)(=O)Nc1ccc(F)c(C(=O)c2c[nH]c3ncc(-c4ccc(Cl)cc4)cc23)c1F [vemurafenib]
Outline: as §1

defactinib = compound: CNC(=O)c1ccc(Nc2ncc(C(F)(F)F)c(NCc3nccnc3N(C)S(C)(=O)=O)n2)cc1 [defactinib]
Outline: as §1

Measured: log2 fold change

FAM13A (UniProt O94988)
inactive: [1] 0.044 | saracatinib 0.127 | sotrastaurin 0.088 | Tubastatin A -0.236 | [2] -0.145

FAM178B (UniProt Q8IXR5)
inactive: [3] 0.21 | sotrastaurin -0.07 | encorafenib 0.058 | [4] -0.163

ESPN (UniProt B1AK53)
inactive: [3] -0.003 | [1] -0.193 | saracatinib -0.016 | Tubastatin A 0.078 | [2] 0.278 | encorafenib 0.062 | [4] 0.033

F2 (UniProt P00734)
inactive: [5] 0.153 | barasertib -0.119 | [3] 0.029 | volasertib 0.125 | [1] 0.031 | Tubastatin A -0.108 | encorafenib 0.04 | [4] -0.006 | [6] -0.006

FAM104A isoform 2 (UniProt Q969W3)
inactive: barasertib 0.063 | [1] 0.443 | saracatinib 0.371 | Tubastatin A 0.06 | [2] -0.11

EVA1B (UniProt Q9NVM1)
inactive: [1] 0.282 | saracatinib -0.001 | sotrastaurin -0.137 | Tubastatin A 0.388 | [7] -0.11 | [2] 0.185

EXOC3L2, A0A1C7CYX0
inactive: [3] 0.162 | [8] -0.049 | [9] -0.055 | saracatinib 0.063 | sotrastaurin 0.057 | alvocidib -0.045 | [7] 0.019 | [2] 0.007 | encorafenib 0.033 | [4] -0.028

FAM135A (UniProt Q9P2D6)
inactive: barasertib 0.067 | [1] -0.003 | [8] 0.129 | [9] 0.01 | saracatinib 0.138 | sotrastaurin 0.076 | alvocidib -0.154 | Tubastatin A -0.177 | [2] -0.037 | alisertib -0.231 | gefitinib 0.096

FAAP20 isoform 2 (UniProt Q6NZ36)
inactive: [8] -0.106 | [9] -0.161 | sotrastaurin -0.123 | alvocidib 0.02

Quoted at random: 2 entries already listed.
EVA1B (UniProt Q9NVM1)
inactive: [1] 0.282 | saracatinib -0.001 | sotrastaurin -0.137 | Tubastatin A 0.388 | [7] -0.11 | [2] 0.185

FAM135A (UniProt Q9P2D6)
inactive: barasertib 0.067 | [1] -0.003 | [8] 0.129 | [9] 0.01 | saracatinib 0.138 | sotrastaurin 0.076 | alvocidib -0.154 | Tubastatin A -0.177 | [2] -0.037 | alisertib -0.231 | gefitinib 0.096

(listing goes on)

EXO5 (UniProt Q9H790)
inactive: barasertib 0.111 | [1] -0.022 | sotrastaurin 0.128 | Tubastatin A 0.018 | [7] 0.068

ESRRB isoform 1 (UniProt O95718)
inactive: barasertib -0.004 | [1] -0.118 | [8] 0.242 | [9] -0.127 | alvocidib 0.233 | Tubastatin A -0.269 | [7] -0.011

FAM174C (UniProt Q9BVV8)
inactive: [5] 0.013 | volasertib 0.127 | [8] -0.378 | [9] -0.1 | alvocidib -0.174 | [7] 0.244 | alisertib -0.157 | [6] -0.19 | gefitinib -0.169

ETV1 (UniProt P50549)
inactive: [1] -0.046 | saracatinib 0.237 | Tubastatin A -0.076 | [7] 0.356 | [2] -0.065 | alisertib -0.088 | gefitinib 0.243

EVI5L isoform 2 (UniProt Q96CN4)
inactive: [8] 0.057 | [9] -0.183 | alvocidib -0.293

ETV4 (UniProt P43268)
inactive: vemurafenib -0.005 | [3] -0.272 | [1] 0.002 | [8] -0.046 | [9] -0.042 | sotrastaurin -0.105 | alvocidib 0.092 | Tubastatin A -0.022 | [7] -0.099 | defactinib 0.011 | encorafenib 0.102 | [4] -0.145 | alisertib -0.06 | gefitinib -0.055

FAM204A (UniProt Q9H8W3)
inactive: vemurafenib -0.003 | [1] 0.059 | [8] 0.273 | sotrastaurin -0.083 | alvocidib -0.139 | Tubastatin A -0.036 | [7] 0.018 | defactinib 0.146
active: [9] -0.614

FAM199X (UniProt Q6PEV8)
inactive: sotrastaurin -0.222

FAM53C (UniProt Q9NYF3)
inactive: [5] 0.043 | barasertib -0.064 | [3] 0.087 | volasertib -0.121 | [1] 0.054 | [8] -0.122 | [9] -0.144 | saracatinib 0.104 | sotrastaurin 0.046 | alvocidib 0.001 | Tubastatin A -0.085 | [7] 0.095 | [2] -0.078 | encorafenib -0.035 | [4] -0.032 | alisertib 0.019 | [6] -0.034 | gefitinib 0.204
